Experimental data reported in article PMC10219652, “Insights into cargo sorting by SNX32 and its role in neurite outgrowth” (eLife, 2023).

Experiments:
mCherry-SNX32 = biological target: T1, mCherry-SNX32 (UniProt Q86XE0); experiment: co-IP; mCherry nanobody-based immunoprecipitation (mCBP-IP): GST-tagged mCBP on glutathione sepharose beads incubated with U87MG cell extracts overexpressing mCherry-tagged SNX proteins; endogenous BSG detected by immunoblot
T1 sequence: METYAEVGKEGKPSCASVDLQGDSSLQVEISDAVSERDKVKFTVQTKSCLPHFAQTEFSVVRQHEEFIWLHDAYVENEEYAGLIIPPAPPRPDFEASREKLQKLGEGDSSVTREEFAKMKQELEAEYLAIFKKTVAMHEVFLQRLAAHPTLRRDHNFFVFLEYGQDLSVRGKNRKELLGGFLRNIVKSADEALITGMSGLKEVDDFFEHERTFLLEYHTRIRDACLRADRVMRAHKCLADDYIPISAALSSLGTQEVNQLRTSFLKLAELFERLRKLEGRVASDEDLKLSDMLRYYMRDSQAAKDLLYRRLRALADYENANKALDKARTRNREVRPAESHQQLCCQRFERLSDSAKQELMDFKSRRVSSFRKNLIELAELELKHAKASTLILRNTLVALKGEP

mCherry-SNX6 = biological target: T2, mCherry-SNX6 (UniProt Q9UNH7); experiment: as above
T2 sequence: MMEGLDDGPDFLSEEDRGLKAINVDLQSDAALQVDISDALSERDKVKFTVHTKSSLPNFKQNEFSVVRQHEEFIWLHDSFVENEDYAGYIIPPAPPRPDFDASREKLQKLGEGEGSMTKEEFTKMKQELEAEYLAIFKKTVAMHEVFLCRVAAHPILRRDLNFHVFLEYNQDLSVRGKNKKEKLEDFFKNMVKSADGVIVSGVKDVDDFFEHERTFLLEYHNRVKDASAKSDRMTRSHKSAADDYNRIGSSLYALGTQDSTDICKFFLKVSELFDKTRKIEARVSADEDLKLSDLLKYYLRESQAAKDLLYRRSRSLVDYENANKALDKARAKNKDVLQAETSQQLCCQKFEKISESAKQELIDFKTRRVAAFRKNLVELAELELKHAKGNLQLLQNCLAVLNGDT

His-SNX32ΔC = biological target: T3, His-SNX32ΔC (UniProt Q86XE0); experiment: pull-down; 20 µg of His SNX32ΔC bound to Ni-NTA beads, incubated with membrane-enriched HeLa cell lysate for 2 hr at 4°C; SDS-PAGE and immunoblot; only the target purified
T3 sequence: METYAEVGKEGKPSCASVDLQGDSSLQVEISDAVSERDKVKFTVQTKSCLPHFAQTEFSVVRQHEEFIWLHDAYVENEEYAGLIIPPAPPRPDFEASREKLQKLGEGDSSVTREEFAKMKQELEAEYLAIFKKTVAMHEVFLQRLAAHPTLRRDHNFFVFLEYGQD

GFP-SNX32 = biological target: T4, GFP-SNX32 (UniProt Q86XE0); experiment: co-IP; GBP-IP of GFP-tagged SNX proteins from lysates of transfected cells (HeLa by the text; HEK293T by the legends of Figure 6A, C and I; the legend of Figure 6I also says GFP trap); endogenous TfR, CIMPR, SNX1 or BSG detected by immunoblot; values are the ratio of prey to GFP band intensity
T4 sequence: T1 sequence

GFP-SNX32 F131D = biological target: T5, GFP-SNX32 F131D (UniProt Q86XE0); experiment: as above
T5 sequence: T1 sequence with F131D

Substance: Basigin (BSG) (from UniProt P35613-2) (receptor)
- binding (mCherry-SNX32): binds
- binding (mCherry-SNX6): no binding
- binding (His-SNX32ΔC): binds
- binding (GFP-SNX32): binds
- binding (GFP-SNX32 F131D): no binding

Where a chain is given by its changes, count along the chain named. Results are given in words; binding and its absence hold for the method and conditions named. Binding seen in cells or lysates may run through a third protein. For some assays here: Binding calls can cover weak binding; strength is not graded here. For some assays here: Where a sequence is shown, tags or fusion partners need not be part of it.
